PubChem BioAssay AID1259283 | Sanger Institute, 2017

Test: 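Kinases whose silencing adds to targeted drugs in killing colon cancer cells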 (primary screen)
Cells: HT115 colorectal cancer cells
Reagent: siRNA pool against human genes
Conditions: anchor drug given one day after siRNA: BYL719 at 1 µM, cetuximab at 5 µg/ml, trametinib at 10 nM, or DMSO vehicle alone
Measurement: 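Viability normalised to non-targeting pool #2 wells and averaged over replicates, robust z-score against control wells, and a synergy score for each of three drugs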
Direction: robust z-score, knock-down alone: higher = more viable cells after knock-down; viability, DMSO vs non-targeting control: higher = more viable cells; synergy score with BYL719 and synergy score with cetuximab and synergy score with trametinib: higher = stronger synergy with drug (synthetic lethal)
Rule for the call: 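a gene counts as essential when its robust z-score with knock-down alone is below -3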
Calls: active = essential (z below -3, no drug); inactive = no change without drug
In all, the deposit lists 794 reagents; this is an unselected part. 14 of all reagents (1.8%) count as active. 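Calls reflect only viability loss without drug; drug synergy does not enter the call.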 Viability is capped at 1. Reagent sequences are not shown. The record does not give: the amount of reagent, the time to read-out.

gene symbol,"robust z-score, knock-down alone","viability, DMSO vs non-targeting control (fraction of control)",synergy score with BYL719,synergy score with cetuximab,synergy score with trametinib,Outcome
PFKFB3,0.789,1,0.124,0.184,0.183,inactive
PRKG2,0.447,0.968,0.0509,0.259,0.273,inactive
TRIM27,0.789,1,0.109,0.128,0.114,inactive
MAPK15,-0.507,0.88,-0.0547,0.151,0.0717,inactive
CDK15,0.789,1,0.119,0.0342,0.0513,inactive
STK24,0.375,0.962,-0.0598,0.0612,0.0662,inactive
AKT3,-0.244,0.905,-0.0889,-0.0229,-0.0213,inactive
VRK3,0.789,1,-0.0224,-0.0435,-0.0196,inactive
ELP1,0.375,0.962,0.0495,0.035,0.0294,inactive
EIF2AK4,0.523,0.975,0.0481,0.0146,-0.0639,inactive
RIPK4,0.789,1,0.00941,-0.0219,-0.145,inactive
PDIK1L,0.756,0.997,-0.0254,-0.0442,0.108,inactive
LRRK1,0.534,0.976,-0.0455,0.096,0.104,inactive
RIOK1,-1.32,0.805,-0.0364,-0.0204,-0.0342,inactive
CDK1,0.227,0.948,-0.0543,0.0478,-0.109,inactive
TBX3,0.289,0.954,0.0357,-0.0767,0.0664,inactive

7 of these entries in another layout.
gene symbol | robust z-score, knock-down alone | viability, DMSO vs non-targeting control (fraction of control) | synergy score with BYL719 | synergy score with cetuximab | synergy score with trametinib | Outcome
AKT3 | -0.244 | 0.905 | -0.0889 | -0.0229 | -0.0213 | inactive
VRK3 | 0.789 | 1 | -0.0224 | -0.0435 | -0.0196 | inactive
ELP1 | 0.375 | 0.962 | 0.0495 | 0.035 | 0.0294 | inactive
EIF2AK4 | 0.523 | 0.975 | 0.0481 | 0.0146 | -0.0639 | inactive
RIPK4 | 0.789 | 1 | 0.00941 | -0.0219 | -0.145 | inactive
PDIK1L | 0.756 | 0.997 | -0.0254 | -0.0442 | 0.108 | inactive
LRRK1 | 0.534 | 0.976 | -0.0455 | 0.096 | 0.104 | inactive

Further reagents:
gene symbol,"robust z-score, knock-down alone","viability, DMSO vs non-targeting control (fraction of control)",synergy score with BYL719,synergy score with cetuximab,synergy score with trametinib,Outcome
HK1,0.789,1,-0.0224,0.0119,-0.013,inactive
CHEK1,0.375,0.962,0.181,0.0618,0.0302,inactive
MAPK6,0.061,0.933,0.124,0.148,0.146,inactive
TGFBR1,0.789,1,0.0583,0.0655,0.156,inactive
LMTK2,0.121,0.938,-0.0107,0.0456,0.0288,inactive
PDK3,0.169,0.943,-0.0784,0.163,0.1,inactive
CAMKK2,0.504,0.974,-0.0481,0.0888,0.133,inactive
STK38L,-2.54,0.692,-0.172,0.039,0.0549,inactive
DGKK,0.789,1,-0.0224,0.00407,-0.0234,inactive
ADPGK,0.0793,0.934,-0.0402,0.107,-0.00821,inactive
STK3,0.789,1,0.0648,0.0417,0.12,inactive
CHKA,-1.55,0.783,0.00959,-0.00891,0.0566,inactive
MET,0.789,1,0.0642,0.166,0.0864,inactive
STK35,0.789,1,-0.0224,0.042,0.027,inactive
PCBP1,0.789,1,0.024,0.125,0.00718,inactive
RSKR,0.613,0.984,0.0452,0.0159,0.0951,inactive
CDK5R1,-0.65,0.867,-0.0691,0.009,0.0814,inactive
LRRK2,0.4,0.964,-0.0453,-0.0175,-0.0161,inactive
PACSIN1,0.289,0.954,0.147,0.128,0.111,inactive
NRK,0.486,0.972,-0.0159,0.0242,0.0891,inactive
PKMYT1,-1.27,0.81,-0.163,0.0114,0.0555,inactive
MPP1,0.789,1,0.105,0.153,0.17,inactive
PRKCSH,0.41,0.965,0.0171,0.0291,-0.0988,inactive
NRAS,0.701,0.992,-0.0251,-0.0513,0.111,inactive
EPHA6,-0.235,0.905,0.187,0.19,0.109,inactive
NME2,-0.0238,0.925,-0.0211,-0.0384,0.104,inactive
PSTK,-0.434,0.887,-0.035,-0.0162,-0.00841,inactive
FN1,0.789,1,0.0285,0.0278,0.139,inactive
RBM10,-1.07,0.828,0.116,0.153,0.108,inactive
DBF4,0.789,1,-0.0157,-0.0435,-0.0262,inactive
MED24,0.789,1,0.04,0.116,0.0557,inactive
PTK2,0.789,1,-0.0172,0.174,0.0471,inactive
MAP3K20,0.789,1,0.0916,0.0696,-0.0703,inactive
AURKC,-0.446,0.886,0.0377,0.0457,0.153,inactive
